{"source": "PubChem BioAssay AID493014", "about": "(National Center for Advancing Translational Sciences (NCATS), 2011)", "note": "About 170 (0.05%) of roughly 340,000 compounds were called active. The shares of active, inactive and inconclusive entries below differ from those in the screen. The call rests on the fitted dose curve; in most records, active means well fitted inhibition curve with a large enough effect in the signal ratio, with a control signal flat (not every such curve was filed as active); inconclusive means small, poorly fitted or top-dose-only effect, or effect the other way, or a change in a side signal; inactive means flat fitted curve, though single readings scatter; the % refers to the signal ratio. A potency beside an inconclusive call is a rough fit, not a confirmed value. Potency means the concentration at half of the fitted maximal effect."}
{"experiment": "qHTS Assay to Find Inhibitors of Chronic Active B-Cell Receptor Signaling;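 on activity change, negative = inhibition: plate controls were basal doxycycline-induced cells for no effect and cells given 10 µM MG132 for full effect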", "conditions": "ABC-DLBCL IkBa-CBG/CBR reporter, luminescence ratio (green luciferase fused to IkBa over red control in TMD8 lymphoma cells), 4 h; activity change, negative = inhibition: at 46.1 µM (top of the series)", "outline": "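Doxycycline induced both beetle luciferases in TMD8 lymphoma cells; IKK-driven degradation limits the IkappaBalpha-fused green signal, while red luminescence normalises for cell number and nonspecific effects. Compounds tested up to 46 uM, 4 hrs.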"}
{"smiles": "COc1ccc(Cl)cc1NC(=O)c1c(NCc2cccs2)sc2c1CCCC2", "activity change, negative = inhibition": "inconclusive: 15.5%"}
{"smiles": "O=Cc1ccccc1OCCOc1ccc([N+](=O)[O-])cc1", "activity change, negative = inhibition": "inconclusive: -0.717%"}
{"smiles": "O=C(O)c1ccc(NC(=O)c2cn(-c3ccccc3)nc2-c2ccccc2)cc1", "activity change, negative = inhibition": "inconclusive: -9.95%"}
{"smiles": "CCC1(C(=O)c2ccc(Cl)cc2)C2c3ccccc3OC(=O)C21C(=O)Nc1ccccc1", "note": "(centres undefined)", "Potency": "inconclusive: 9.2 µM [rising, partial curve, poor fit]"}
{"smiles": "C/C(=N\\NC(=O)c1ccc(Br)cc1)c1ccccc1", "Potency": "inconclusive: 14.1 µM [falling, single point]"}
{"smiles": "CCN(Cc1ccc(OC)c(F)c1)C(=O)c1oc2ccccc2c1COC", "activity change, negative = inhibition": "inconclusive: -2.24%"}
{"smiles": "CCOc1ccc(OCc2ccc(C(=O)N3CCOCC3)cc2)cc1", "Potency": "inconclusive: 29.1 µM [falling, single point]"}
{"smiles": "CC(C)(C)N1C(=O)[C@H]2[C@@H](c3ccc(Br)cc3)N3C(=O)N(c4ccc(Br)cc4)C(=O)[C@@]3(Cc3ccccc3)[C@H]2C1=O", "activity change, negative = inhibition": "inconclusive: 21.9%"}
{"smiles": "O=C(C1CC(=O)N(c2ccccc2)C1)N1CCN(c2ccc(F)cc2)CC1", "note": "(centres undefined)", "activity change, negative = inhibition": "inactive"}
{"smiles": "Cc1cc2oc(C(=O)Nc3cccnc3)c(C)c2cc1C", "Potency": "inconclusive: 32.6 µM [rising, single point]"}
{"smiles": "CCC1SC(=Nc2cccc(C)c2)NC1=O", "note": "(centres undefined)", "Potency": "inconclusive: 12.6 µM [falling, single point]"}
{"smiles": "CN(Cc1ccccc1Cl)C(=O)c1cnccc1C(F)(F)F", "activity change, negative = inhibition": "inconclusive: 5.98%"}
{"smiles": "CCN(CC)S(=O)(=O)c1ccc(/C=C/C(=O)Nc2ccc(F)cc2F)cc1", "activity change, negative = inhibition": "inconclusive: -8.06%"}
{"smiles": "CC(C)N1CCN(C(=O)c2ccc(OC3CCN(CCc4ccccc4)CC3)cc2)CC1", "activity change, negative = inhibition": "inactive"}
{"smiles": "CCOc1cc2c(C#N)c(N3CCNCC3)nc(N)c2c(N)n1", "activity change, negative = inhibition": "inconclusive: 8.63%"}
{"smiles": "Cc1cc(C(=O)COc2ccc(F)cc2Br)c(C)n1C1CC1", "activity change, negative = inhibition": "inconclusive: 7.5%"}
{"smiles": "CC(C)NC(=O)C12CC3CC(C1)CC(C(=O)NC(C)C)(C3)C2", "activity change, negative = inhibition": "inactive"}
{"smiles": "COc1ccc(Oc2ccc(/C=C/C(=O)c3ccc(O)cc3)cc2[N+](=O)[O-])cc1", "Potency": "inconclusive: 6.51 µM [falling, partial curve, poor fit]"}
{"smiles": "Cc1ccc2nc(-c3ccccc3)c(-c3ccccc3)nc2c1", "Potency": "inconclusive: 17.8 µM [rising, partial curve, poor fit]"}
{"smiles": "COC(=O)Cn1cc(/C=C/[N+](=O)[O-])c2ccccc21", "Potency": "inconclusive: 25.1 µM [cytotoxic, single point]"}
{"smiles": "O=c1cc(CN2CCN(C/C=C/c3ccccc3)CC2)c2cc(O)ccc2o1", "activity change, negative = inhibition": "inconclusive: -11.8%"}
{"smiles": "O=S(=O)(c1ccc(F)cc1)N1CCn2c(nc3ccccc32)C1", "activity change, negative = inhibition": "inconclusive: -28.6%"}
{"smiles": "Cc1ccc(C(=O)OCC(=O)NC(C)c2ccccc2)s1", "note": "(centres undefined)", "activity change, negative = inhibition": "inactive"}
{"smiles": "Cc1ccc(-n2c(SCc3ccccc3C)nc3[nH]ncc3c2=O)cc1C", "Potency": "inconclusive: 22.4 µM [falling, partial curve, poor fit]"}
{"smiles": "CCOC(=O)C1(CC2CC2)CCN(Cc2ccc(OC)cc2F)CC1", "activity change, negative = inhibition": "inactive"}
{"smiles": "Cc1ccc(NC(=O)C2CSC3(C)CCC(=O)N23)cc1S(=O)(=O)N1CCOCC1", "note": "(centres undefined)", "activity change, negative = inhibition": "inconclusive: -0.463%"}
{"smiles": "CC(C)(C)c1ccc(C(=O)NCC(=O)OCc2ccc([N+](=O)[O-])cc2)cc1", "activity change, negative = inhibition": "inconclusive: -12.1%"}
{"smiles": "COc1cccc(-n2nnc3c(=O)n(Cc4ccccc4F)cnc32)c1", "activity change, negative = inhibition": "inconclusive: 10.6%"}
{"smiles": "COc1cccc(CNC(=O)c2ccccc2N)c1", "activity change, negative = inhibition": "inactive"}
{"smiles": "CCOc1ccc(-c2c(C(=O)N/N=C/C3CC=CCC3)nnn2-c2nonc2N)cc1", "note": "(centres undefined)", "activity change, negative = inhibition": "inconclusive: 3.65%"}
{"smiles": "O=S(=O)(c1cccc(-c2nc3ccccc3s2)c1)N1CCCC1", "activity change, negative = inhibition": "inconclusive: -23.9%"}
{"smiles": "CCCCC/C=C\\C[C@H](O)/C=C/c1cccc(C[C@H](O)CCCCO)n1", "Potency": "inconclusive: 11.2 µM [falling, single point]"}
{"smiles": "Cc1cc(C)c2nc(NNC(=O)c3ccc(S(=O)(=O)N4CCc5ccccc5C4)cc3)sc2c1", "activity change, negative = inhibition": "inconclusive: 5.5%"}
{"smiles": "Cc1cccc(NC(=O)N2CCCC2C(=O)NCc2ccccc2)c1", "note": "(centres undefined)", "activity change, negative = inhibition": "inconclusive: 1.66%"}
{"smiles": "O=c1c2ccccc2cnn1CCOc1ccccc1", "activity change, negative = inhibition": "inconclusive: 297%"}
{"smiles": "c1ccc(CSc2nnc(-c3ccncc3)o2)cc1", "activity change, negative = inhibition": "inactive"}
{"smiles": "O=C(c1ccc(Cl)c(Cl)c1)N1CCC(=O)N(C(COCc2cccc(C(F)(F)F)c2)Cc2ccccc2)CC1", "note": "(centres undefined)", "activity change, negative = inhibition": "inconclusive: -16.2%"}
{"smiles": "CCCS/C(N)=N/N=C/c1cc(C)ccc1O", "Potency": "inconclusive: 29.1 µM [falling, single point]"}
{"smiles": "Cc1cc(C(=O)NC2CCC(C)CC2)c(C)o1", "note": "(centres undefined)", "activity change, negative = inhibition": "inconclusive: 9.04%"}
{"smiles": "O=C(/C=C/c1ccc(S(=O)(=O)N2CCOCC2)cc1)NC(CO)C(O)c1ccc([N+](=O)[O-])cc1", "note": "(centres undefined)", "activity change, negative = inhibition": "inactive"}
{"smiles": "COc1ccc(-n2c(SCC(=O)Nc3ccc(NC(C)=O)cc3)nc3c([nH]c4ccccc43)c2=O)cc1OC", "Potency": "inconclusive: 22.4 µM [falling, single point]"}
{"smiles": "CN(C)CCCN(C(=O)c1ccc(Br)s1)c1nc2cc3c(cc2s1)OCCO3", "Potency": "inconclusive: 2.06 µM [falling, full curve, poor fit]"}
{"smiles": "CCNS(=O)(=O)c1ccc2c3c(cccc13)C(=O)N2", "activity change, negative = inhibition": "inactive"}
{"smiles": "C/C(=N\\NC(=O)C(=O)Nc1cccc(C(F)(F)F)c1)c1ccc(Cl)s1", "activity change, negative = inhibition": "inactive"}
{"smiles": "CCN(CC)C(=O)CSCC(=O)Nc1ccccc1", "activity change, negative = inhibition": "inactive"}
{"smiles": "O=C(N/N=C/c1cccs1)[C@H]1C[C@@H]1c1ccccc1", "activity change, negative = inhibition": "inconclusive: 9.56%"}
{"smiles": "O=[N+]([O-])c1ccc2nc(-c3ccccc3)cc(-c3ccccc3)c2c1", "activity change, negative = inhibition": "inconclusive: 12.8%"}
{"smiles": "CCSc1nc(-c2ccccc2)nc(C(Cl)Cl)n1", "activity change, negative = inhibition": "inconclusive: 0.549%"}
{"smiles": "COCCN=C(NS(=O)(=O)c1cccs1)c1ccccc1Cl", "activity change, negative = inhibition": "inconclusive: 4.55%"}
{"smiles": "Cc1nc(SCCOc2ccc(F)cc2)c2ccccc2n1", "activity change, negative = inhibition": "inconclusive: 22.6%"}
{"smiles": "CC(=O)c1cccn1S(=O)(=O)c1ccccc1", "activity change, negative = inhibition": "inconclusive: 0.917%"}
{"smiles": "O=C(NCCCN1CCCC1=O)C1CCN(S(=O)(=O)c2cc(C(F)(F)F)ccc2Cl)CC1", "activity change, negative = inhibition": "inconclusive: -0.41%"}
{"smiles": "CCOC(=O)c1ccc(NC(=O)N2CCN(c3ccccn3)CC2)cc1", "activity change, negative = inhibition": "inactive"}
{"smiles": "Cc1ccc(C(=O)N/C(=C\\c2ccco2)C(=O)N2CCOCC2)cc1C", "Potency": "inconclusive: 35.5 µM [falling, partial curve, poor fit]"}
{"smiles": "Cc1ccc(N=c2sc(C)c(C)n2C)cc1", "activity change, negative = inhibition": "inconclusive: 0.574%"}
{"smiles": "O=C(COc1ccc(S(=O)(=O)N2CCCC2)cc1Cl)NC1CC1", "activity change, negative = inhibition": "inconclusive: 10.3%"}
{"smiles": "CN1C(=O)C(O)(CC(=O)c2ccccn2)c2cc(Br)ccc21", "note": "(centres undefined)", "Potency": "inconclusive: 14.6 µM [falling, partial curve, poor fit]"}
{"smiles": "CC(=O)c1cc(C#N)c(N2CCN(c3ccccc3)CC2)nc1C", "activity change, negative = inhibition": "inconclusive: -0.0873%"}
{"smiles": "CCOc1ccc(NC(=O)CN(C)C(=O)C2CSC3(C)CCC(=O)N23)cc1OCC", "note": "(centres undefined)", "activity change, negative = inhibition": "inconclusive: 7.47%"}
{"smiles": "O=C(/C=C/C=C/c1ccc2c(c1)OCO2)N1CCCCC1", "Potency": "inconclusive: 20.6 µM [falling, partial curve]"}
{"smiles": "O=C(COC(=O)c1ccc(F)cc1)Nc1ccccc1N1CCOCC1", "activity change, negative = inhibition": "inconclusive: 9.65%"}
{"smiles": "CS(=O)(=O)N1CCc2cc(C(=O)Nc3ccc(COCC(F)(F)F)cc3)ccc21", "activity change, negative = inhibition": "inactive"}
{"smiles": "COc1ccc(CCNC(=O)C2CCCN2C(=O)Nc2ccc(Cl)cc2)cc1OC", "note": "(centres undefined)", "activity change, negative = inhibition": "inactive"}
{"smiles": "COc1ccc(Cl)cc1NS(=O)(=O)c1c(C)[nH]c(=O)[nH]c1=O", "activity change, negative = inhibition": "inactive"}
{"smiles": "CCOP(=O)(OCC)C(NC(=O)Nc1ccc(Cl)cc1)c1ccccc1", "note": "(centres undefined)", "activity change, negative = inhibition": "inactive"}
{"smiles": "Cc1ccc(/C=C2\\S/C(=N/S(=O)(=O)c3cccs3)NC2=O)cc1", "activity change, negative = inhibition": "inactive"}
{"smiles": "O=c1c2ccccc2nc2n1CCc1c-2[nH]c2ccccc12", "Potency": "inconclusive: 0.231 µM [rising, full curve, poor fit]"}
{"smiles": "CCn1c(SCC(=O)c2ccccc2)nnc1-c1cnccn1", "Potency": "inconclusive: 20.6 µM [falling, single point]"}
{"smiles": "Cn1c(SCC(=O)C(C)(C)C)nnc1-c1ccccn1", "Potency": "inconclusive: 23.1 µM [rising, partial curve, poor fit]"}
{"smiles": "C[C@@H]1O[C@@H](OC[C@H]2O[C@@H](Oc3c(-c4ccc(O)cc4)oc4cc(O)cc(O)c4c3=O)[C@H](O)[C@@H](O)[C@@H]2O)[C@H](O)[C@H](O)[C@H]1O", "Potency": "inconclusive: 7.31 µM [falling, partial curve, poor fit]"}
{"smiles": "COc1ccc(-c2[nH]nc3c2C(c2ccoc2)C(C#N)=C(N)O3)cc1", "note": "(centres undefined)", "Potency": "inconclusive: 29.1 µM [falling, single point]"}
{"smiles": "Cc1cc(C)cc(C(=O)NC(CC(N)=O)c2ccc(N3CCC(Br)CC3)c([N+](=O)[O-])c2)c1", "note": "(centres undefined)", "activity change, negative = inhibition": "inactive"}
{"smiles": "COc1ccc(-n2cc(CN[C@H]3CCCCNC3=O)c(-c3cccc(F)c3)n2)cc1", "activity change, negative = inhibition": "inconclusive: -14%"}
{"smiles": "CCOc1cc(CN2CCSCC2)ccc1O", "activity change, negative = inhibition": "inactive"}
{"smiles": "CCC(=O)OCC(=O)[C@@]1(OC(=O)CC)[C@@H](C)C[C@H]2[C@@H]3CCC4=CC(=O)C=C[C@]4(C)[C@@]3(Cl)[C@@H](O)C[C@@]21C", "activity change, negative = inhibition": "inconclusive: -1.99%"}
{"smiles": "CC1Cn2cc(C(=O)Nc3ccccc3C(F)(F)F)c(=O)c3c(Cl)ccc(c32)O1", "note": "(centres undefined)", "activity change, negative = inhibition": "inactive"}
{"smiles": "COc1cc(S(=O)(=O)n2cnc(C)c2)ccc1Br", "activity change, negative = inhibition": "inactive"}
{"smiles": "O=C(CNC(=O)c1ccco1)Nc1ccc(N2CCCCCC2)cc1", "activity change, negative = inhibition": "inconclusive: -0.134%"}
{"smiles": "COc1cc(OC)c(OC)cc1/C=C1\\Oc2cc(OCC(=O)N3Cc4ccccc4C[C@H]3C(=O)O)ccc2C1=O", "Potency": "inconclusive: 10 µM [rising, partial curve]"}
